Source: US20180243286A1, “Antibacterial compositions of a beta-lactamase inhibitor with a cephalosporin” (WOCKHARDT LIMITED, priority 2015, published 2018)
For at least one compound, name, drawing or mass did not settle the structure.

Assays:
[1] = system: E. coli M50 producing CMY 6, DHA-1/2 beta-lactamase enzymes; assay: Time kill study against clinical isolate of E. coli M50; assay type: cell-based; settings: throughout the duration of the study
Procedure: (§1) The killing effect of the combinations according to invention was studied by performing time kill studies. In a typical time kill study, the freshly grown cultures were diluted to the required cell density (initial starting inoculum) in Cation adjusted Muller Hinton broth medium (BD, USA). The antibacterial agents (either alone or in combination) at the required concentrations were added into the culture-containing medium. The samples were incubated under shaking condition (120 rpm) at 37° C. Enumeration of viable bacterial count was done every 2 hour by diluting in normal saline and plating on to the Tryptic Soya Agar plates (BD, USA). The plates were incubated for 24 hours to arrive at the viable bacterial count. The results are expressed in terms of log10 CFU per ml. In general, the decrease of 1 log10 CFU/ml corresponds to 90% killing of bacteria. Similarly, 2 log10 CFU/ml reductions indicates to 99% killing of bacteria and 3 log10 CFU/ml reductions is equal to 99.9% killing of bacteria.
E. coli M50 produces resistant CMY 6, DHA-1/2 beta-lactamase enzymes.

[2] = system: K. pneumoniae H521 producing KPC, SHV and TEM beta-lactamase enzymes; assay: Time kill study against clinical isolate of K. pneumoniae H521; assay type: cell-based; settings: throughout the duration of the study
Procedure: as §1
K. pneumoniae H521 produces resistant KPC, SHV and TEM beta-lactamase enzymes.

SMILES	Effect on bacterial counts when used alone [1]	Effect on bacterial counts when used alone [2]
C=CC1=C(C(=O)O)N2C(=O)[C@@H](NC(=O)/C(=N\OCC(=O)O)c3csc(N)n3)[C@H]2SC1 [Cefixime]	did not reduce the bacterial counts	did not reduce the bacterial counts
COCC1=C(C(=O)O)N2C(=O)[C@@H](NC(=O)/C(=N\OC)c3csc(N)n3)[C@H]2SC1 [Cefpodoxime]	did not reduce the bacterial counts	–
